Among the data in paper PMC10512269 are binding values, retold here.

Amino acid sequences for entries named in this document (tags omitted). A change or cut given only in a name is not applied to a line headed by its entry.
UniProt Q4WLV8: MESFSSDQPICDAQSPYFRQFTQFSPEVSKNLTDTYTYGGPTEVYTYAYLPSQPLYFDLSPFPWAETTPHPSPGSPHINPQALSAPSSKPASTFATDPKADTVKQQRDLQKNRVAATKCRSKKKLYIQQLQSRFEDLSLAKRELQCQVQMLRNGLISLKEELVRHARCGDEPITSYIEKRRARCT
UniProt Q4WR67: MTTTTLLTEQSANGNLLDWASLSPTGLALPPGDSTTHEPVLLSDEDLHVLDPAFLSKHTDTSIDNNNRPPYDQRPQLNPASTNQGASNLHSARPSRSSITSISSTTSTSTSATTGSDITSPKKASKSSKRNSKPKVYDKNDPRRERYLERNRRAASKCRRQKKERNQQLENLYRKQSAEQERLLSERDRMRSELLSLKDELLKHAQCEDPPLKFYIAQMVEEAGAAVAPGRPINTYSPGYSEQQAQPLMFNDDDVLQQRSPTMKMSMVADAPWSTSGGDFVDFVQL

Like-named read-outs stand apart in the source and are kept apart here. Results are given in words; binding and its absence hold for the method and conditions named. In cells and extracts the contact can be indirect. Binding calls can cover weak binding; strength is not graded here. For some assays here: Where a sequence is shown, tags or fusion partners need not be part of it.

Test in all cases: co-IP; GFP-Trap resin with protein extracts of A. fumigatus mycelia (grown 16 h in liquid YG; untreated, 1.2 M sorbitol 10 min, or Congo Red 300 ug/ml 10 min); 4 h at 4°C, washed three times in B250 buffer; Western blot with anti-GFP and anti-HA
(In general: In western blotting, separated proteins are transferred to a membrane and probed.)

The target in experiment [1] is T1, AtfA:GFP (Aspergillus fumigatus) (UniProt Q4WY05).
T1 sequence: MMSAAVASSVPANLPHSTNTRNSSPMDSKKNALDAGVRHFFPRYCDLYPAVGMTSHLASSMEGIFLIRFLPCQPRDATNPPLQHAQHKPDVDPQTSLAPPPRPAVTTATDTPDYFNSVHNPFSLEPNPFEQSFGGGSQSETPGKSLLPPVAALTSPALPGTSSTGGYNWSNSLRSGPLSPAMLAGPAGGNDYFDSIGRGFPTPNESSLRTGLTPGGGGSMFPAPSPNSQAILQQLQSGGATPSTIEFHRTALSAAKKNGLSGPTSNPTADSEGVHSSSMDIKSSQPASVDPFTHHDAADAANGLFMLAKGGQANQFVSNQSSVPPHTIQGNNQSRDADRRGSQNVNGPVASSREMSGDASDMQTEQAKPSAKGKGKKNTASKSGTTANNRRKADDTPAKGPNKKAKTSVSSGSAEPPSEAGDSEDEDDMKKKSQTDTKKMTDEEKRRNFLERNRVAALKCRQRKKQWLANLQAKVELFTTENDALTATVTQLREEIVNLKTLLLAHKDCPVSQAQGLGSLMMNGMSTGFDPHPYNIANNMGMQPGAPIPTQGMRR

Experiment [2] concerns the target AtfD:GFP (Aspergillus fumigatus) (UniProt Q4WLV8).
Experiment [3] concerns the target T2, AtfB:GFP (Aspergillus fumigatus) (UniProt Q4WVQ7).
T2 sequence: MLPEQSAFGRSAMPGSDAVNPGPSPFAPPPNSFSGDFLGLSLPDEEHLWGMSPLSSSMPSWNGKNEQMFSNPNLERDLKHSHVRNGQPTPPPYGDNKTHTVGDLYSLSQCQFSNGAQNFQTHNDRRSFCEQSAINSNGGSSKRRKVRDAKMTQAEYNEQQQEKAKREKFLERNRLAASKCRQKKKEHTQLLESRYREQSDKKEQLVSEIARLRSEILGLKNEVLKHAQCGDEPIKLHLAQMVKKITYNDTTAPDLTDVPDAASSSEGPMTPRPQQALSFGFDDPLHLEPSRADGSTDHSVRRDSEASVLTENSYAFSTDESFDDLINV

For experiment [4], the target named is AtfD:GFP (Aspergillus fumigatus) (UniProt Q4WLV8). This is another data set of the same source.

With AtfC:3xHA (from UniProt Q4WR67), the binding result in experiment [1], in experiment [2] and in experiment [3] was “binds” each time.

B1: AtfB:3xHA (protein, UniProt Q4WVQ7 1-328)
chain: T2 sequence
For B1, the binding entry in experiment [4] was “binds”.

B2: AtfA:3xHA (protein, UniProt Q4WY05 1-555)
chain: T1 sequence
With B2, the binding entry in experiment [4] is “binds”.
